According to patent publication US12650433B2, “Detection of symmetrical dimethylarginine” (IDEXX LABORATORIES, INC., priority 2017, dated 2026):

Experiment: Catalyst DX SDMA assay on matched feline serum and plasma samples, serum/plasma bias
Settings: range over samples
Method: The Catalyst DX® assays were performed according the following general procedure and according the instruction of the manufacturer (IDEXX Laboratories, Inc.) The sample and the anti-SDMA-HRP conjugate were incubated for two minutes at room temperature. Two 11 μL aliquots of the mixture were applied to the CATALYST DXR solid phase prepared as described in Example 12. The solid phase was washed three times with 9 μL of wash buffer. Two 11.5 μL aliquots of TMB substrate were added. The OD of the slide was then read for two minutes at 0.5 second intervals at 645 nM.
The Catalyst DX® SDMA assay was carried out on matched serum and plasma samples, with either covalently linked amine-MMA particles or passively coated G6PDH-MMA particles. The experiments were performed in duplicate. Sample bias was calculated as follows: (serum SDMA (μg/dL)-plasma SDMA (μg/dL)/((serum SDMA (μg/dL)+plasma SDMA (μg/dL))/2), which reflects the difference between the serum and plasma values) divided by the mean of the serum and plasma values.

SMILES: CCNC(=O)CSCCNC(=O)C(N)CCCNC(=N)NC (stereo not shown) [G6PDH-MMA]
- serum/plasma bias: −3% to 6%
